Data: the supplement of paper PMC6411743
± gives the standard deviation of the averaged measurements. The entries are a selection whose mix differs from that of the whole data set. Most entries show no effect beyond the scatter of the controls.

By UniProt entry, the sequences of proteins in these tests, tags left out. Where a name states a change or a piece, a line headed by the entry shows the natural chain unless it says otherwise.
UniProt Q9P2Y5: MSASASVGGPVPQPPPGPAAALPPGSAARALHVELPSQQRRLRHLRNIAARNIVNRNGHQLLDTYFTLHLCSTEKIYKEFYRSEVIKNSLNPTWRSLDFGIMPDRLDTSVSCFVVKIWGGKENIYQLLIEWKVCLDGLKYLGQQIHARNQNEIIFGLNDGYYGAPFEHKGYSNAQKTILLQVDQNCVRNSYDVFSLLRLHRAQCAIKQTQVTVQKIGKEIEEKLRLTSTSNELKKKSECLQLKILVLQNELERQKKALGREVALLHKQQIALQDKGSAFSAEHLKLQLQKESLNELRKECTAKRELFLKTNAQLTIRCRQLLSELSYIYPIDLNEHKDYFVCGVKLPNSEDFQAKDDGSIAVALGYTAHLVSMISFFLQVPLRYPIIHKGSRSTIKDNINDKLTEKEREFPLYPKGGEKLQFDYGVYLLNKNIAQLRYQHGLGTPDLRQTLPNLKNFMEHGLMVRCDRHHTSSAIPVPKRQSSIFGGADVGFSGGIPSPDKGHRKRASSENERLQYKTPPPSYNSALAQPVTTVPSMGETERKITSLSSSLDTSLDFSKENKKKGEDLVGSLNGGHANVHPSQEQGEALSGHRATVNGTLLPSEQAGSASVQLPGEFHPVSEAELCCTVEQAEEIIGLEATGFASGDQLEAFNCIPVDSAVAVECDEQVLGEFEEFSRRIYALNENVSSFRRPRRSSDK
UniProt Q9UP95: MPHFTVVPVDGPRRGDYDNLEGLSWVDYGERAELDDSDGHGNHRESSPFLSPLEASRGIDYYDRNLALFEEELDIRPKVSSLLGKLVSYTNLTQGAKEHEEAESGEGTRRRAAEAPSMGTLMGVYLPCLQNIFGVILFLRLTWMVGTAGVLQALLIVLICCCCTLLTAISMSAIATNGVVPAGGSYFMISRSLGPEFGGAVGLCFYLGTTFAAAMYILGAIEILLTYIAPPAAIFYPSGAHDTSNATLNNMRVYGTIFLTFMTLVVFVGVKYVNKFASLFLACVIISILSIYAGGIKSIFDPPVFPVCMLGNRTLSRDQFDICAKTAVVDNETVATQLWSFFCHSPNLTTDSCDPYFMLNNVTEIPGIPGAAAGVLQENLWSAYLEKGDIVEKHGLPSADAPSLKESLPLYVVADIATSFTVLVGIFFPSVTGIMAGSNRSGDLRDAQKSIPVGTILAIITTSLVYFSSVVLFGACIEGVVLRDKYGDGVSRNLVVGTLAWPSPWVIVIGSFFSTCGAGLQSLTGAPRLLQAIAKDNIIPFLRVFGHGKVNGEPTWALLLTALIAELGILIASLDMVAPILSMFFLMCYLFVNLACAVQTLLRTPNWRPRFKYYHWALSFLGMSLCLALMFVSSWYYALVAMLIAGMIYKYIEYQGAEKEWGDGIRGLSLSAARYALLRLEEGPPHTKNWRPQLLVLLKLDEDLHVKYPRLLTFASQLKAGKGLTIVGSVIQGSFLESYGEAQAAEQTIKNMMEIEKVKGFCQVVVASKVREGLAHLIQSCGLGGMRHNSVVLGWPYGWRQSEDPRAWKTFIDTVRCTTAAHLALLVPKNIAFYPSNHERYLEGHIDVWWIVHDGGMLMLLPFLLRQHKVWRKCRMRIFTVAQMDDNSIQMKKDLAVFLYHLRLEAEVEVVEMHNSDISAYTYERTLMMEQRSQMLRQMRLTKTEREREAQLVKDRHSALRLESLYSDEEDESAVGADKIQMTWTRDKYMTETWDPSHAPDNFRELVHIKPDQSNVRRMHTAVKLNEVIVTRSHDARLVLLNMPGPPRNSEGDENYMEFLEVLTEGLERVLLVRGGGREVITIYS
UniProt Q9UBQ7: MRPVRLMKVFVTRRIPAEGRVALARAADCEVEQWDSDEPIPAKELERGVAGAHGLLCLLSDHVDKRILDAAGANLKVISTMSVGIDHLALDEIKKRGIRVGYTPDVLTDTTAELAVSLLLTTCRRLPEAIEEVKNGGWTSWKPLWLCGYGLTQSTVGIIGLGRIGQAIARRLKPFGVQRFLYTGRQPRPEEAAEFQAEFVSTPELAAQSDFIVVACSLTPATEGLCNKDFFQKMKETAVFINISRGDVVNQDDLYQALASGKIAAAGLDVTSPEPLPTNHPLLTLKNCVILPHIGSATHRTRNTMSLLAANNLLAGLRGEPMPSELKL
UniProt Q9ULX3: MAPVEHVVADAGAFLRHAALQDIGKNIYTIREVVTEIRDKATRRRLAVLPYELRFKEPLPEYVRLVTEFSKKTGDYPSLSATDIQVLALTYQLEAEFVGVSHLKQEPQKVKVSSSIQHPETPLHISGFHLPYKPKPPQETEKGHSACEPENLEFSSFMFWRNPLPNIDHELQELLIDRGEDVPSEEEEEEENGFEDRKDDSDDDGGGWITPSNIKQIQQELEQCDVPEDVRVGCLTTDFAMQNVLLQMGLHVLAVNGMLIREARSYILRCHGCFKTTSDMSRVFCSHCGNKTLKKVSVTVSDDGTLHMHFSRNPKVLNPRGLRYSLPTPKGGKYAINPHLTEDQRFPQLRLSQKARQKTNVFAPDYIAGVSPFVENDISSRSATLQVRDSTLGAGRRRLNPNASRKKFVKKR
UniProt Q9UPN7: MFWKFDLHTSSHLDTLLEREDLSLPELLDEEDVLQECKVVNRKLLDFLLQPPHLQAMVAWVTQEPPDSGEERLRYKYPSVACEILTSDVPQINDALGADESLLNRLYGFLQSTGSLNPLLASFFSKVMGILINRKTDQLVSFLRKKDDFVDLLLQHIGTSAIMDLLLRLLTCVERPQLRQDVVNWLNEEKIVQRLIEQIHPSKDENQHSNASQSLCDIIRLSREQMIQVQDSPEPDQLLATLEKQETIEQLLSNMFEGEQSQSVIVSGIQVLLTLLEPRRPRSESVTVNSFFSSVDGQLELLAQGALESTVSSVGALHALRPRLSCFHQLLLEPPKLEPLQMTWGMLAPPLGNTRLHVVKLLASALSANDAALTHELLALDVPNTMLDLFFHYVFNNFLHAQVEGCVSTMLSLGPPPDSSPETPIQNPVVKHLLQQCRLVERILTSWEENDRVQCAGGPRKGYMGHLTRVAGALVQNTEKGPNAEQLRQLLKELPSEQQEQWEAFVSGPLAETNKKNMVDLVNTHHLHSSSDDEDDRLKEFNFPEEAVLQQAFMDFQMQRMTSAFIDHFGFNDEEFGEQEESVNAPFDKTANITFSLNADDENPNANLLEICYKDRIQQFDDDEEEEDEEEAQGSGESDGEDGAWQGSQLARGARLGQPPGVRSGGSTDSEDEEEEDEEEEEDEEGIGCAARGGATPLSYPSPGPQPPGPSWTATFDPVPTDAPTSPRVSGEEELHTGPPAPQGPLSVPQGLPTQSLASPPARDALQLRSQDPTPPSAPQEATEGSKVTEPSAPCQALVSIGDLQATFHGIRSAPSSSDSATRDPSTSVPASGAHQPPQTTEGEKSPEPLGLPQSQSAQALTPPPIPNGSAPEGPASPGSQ
UniProt Q9UBK8: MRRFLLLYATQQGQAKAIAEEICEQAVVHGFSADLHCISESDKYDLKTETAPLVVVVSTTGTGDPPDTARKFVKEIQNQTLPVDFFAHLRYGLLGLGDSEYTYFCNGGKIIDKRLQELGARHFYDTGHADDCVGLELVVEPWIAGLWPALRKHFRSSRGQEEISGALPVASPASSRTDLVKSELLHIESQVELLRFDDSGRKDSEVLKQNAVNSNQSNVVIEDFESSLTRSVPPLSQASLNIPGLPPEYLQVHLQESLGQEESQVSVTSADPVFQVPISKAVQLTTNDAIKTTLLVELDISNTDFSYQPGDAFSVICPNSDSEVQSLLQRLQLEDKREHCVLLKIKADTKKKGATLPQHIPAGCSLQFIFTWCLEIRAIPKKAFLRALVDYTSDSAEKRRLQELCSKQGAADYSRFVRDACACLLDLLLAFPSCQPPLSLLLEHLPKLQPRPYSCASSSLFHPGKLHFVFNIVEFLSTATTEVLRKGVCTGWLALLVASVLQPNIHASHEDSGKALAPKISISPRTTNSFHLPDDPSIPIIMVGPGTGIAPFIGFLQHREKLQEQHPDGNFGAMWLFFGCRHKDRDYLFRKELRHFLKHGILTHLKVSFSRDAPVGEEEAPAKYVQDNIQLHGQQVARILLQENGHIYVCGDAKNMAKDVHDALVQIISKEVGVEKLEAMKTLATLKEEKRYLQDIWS
UniProt Q9UK59: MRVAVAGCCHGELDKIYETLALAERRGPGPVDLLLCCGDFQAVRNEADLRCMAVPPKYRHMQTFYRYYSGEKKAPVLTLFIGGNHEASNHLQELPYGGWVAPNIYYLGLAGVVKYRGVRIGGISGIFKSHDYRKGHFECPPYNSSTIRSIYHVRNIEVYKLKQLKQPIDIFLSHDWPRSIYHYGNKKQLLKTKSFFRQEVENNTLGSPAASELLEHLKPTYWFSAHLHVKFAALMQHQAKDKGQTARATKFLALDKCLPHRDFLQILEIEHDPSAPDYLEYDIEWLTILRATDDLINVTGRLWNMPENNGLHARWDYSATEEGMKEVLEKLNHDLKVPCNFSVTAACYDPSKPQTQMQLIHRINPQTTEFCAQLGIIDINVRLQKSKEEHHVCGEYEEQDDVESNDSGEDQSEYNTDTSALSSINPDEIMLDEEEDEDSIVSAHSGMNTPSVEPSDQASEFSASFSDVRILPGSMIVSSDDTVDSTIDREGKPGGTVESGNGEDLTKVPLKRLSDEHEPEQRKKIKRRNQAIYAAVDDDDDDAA
UniProt Q9UNF0: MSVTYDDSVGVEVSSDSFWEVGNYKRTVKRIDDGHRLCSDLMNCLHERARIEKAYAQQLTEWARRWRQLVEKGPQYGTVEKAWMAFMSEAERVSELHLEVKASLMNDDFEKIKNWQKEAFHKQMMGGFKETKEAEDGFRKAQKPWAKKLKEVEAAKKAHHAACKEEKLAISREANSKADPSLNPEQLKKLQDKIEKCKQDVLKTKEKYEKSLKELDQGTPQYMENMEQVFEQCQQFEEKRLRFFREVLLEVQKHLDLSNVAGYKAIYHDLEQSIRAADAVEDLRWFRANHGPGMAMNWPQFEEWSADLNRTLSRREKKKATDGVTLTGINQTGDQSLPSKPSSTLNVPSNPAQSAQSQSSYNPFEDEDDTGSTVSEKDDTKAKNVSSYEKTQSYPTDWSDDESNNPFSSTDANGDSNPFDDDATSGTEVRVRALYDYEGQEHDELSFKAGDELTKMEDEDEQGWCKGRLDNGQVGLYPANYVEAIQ
UniProt Q9UGU5: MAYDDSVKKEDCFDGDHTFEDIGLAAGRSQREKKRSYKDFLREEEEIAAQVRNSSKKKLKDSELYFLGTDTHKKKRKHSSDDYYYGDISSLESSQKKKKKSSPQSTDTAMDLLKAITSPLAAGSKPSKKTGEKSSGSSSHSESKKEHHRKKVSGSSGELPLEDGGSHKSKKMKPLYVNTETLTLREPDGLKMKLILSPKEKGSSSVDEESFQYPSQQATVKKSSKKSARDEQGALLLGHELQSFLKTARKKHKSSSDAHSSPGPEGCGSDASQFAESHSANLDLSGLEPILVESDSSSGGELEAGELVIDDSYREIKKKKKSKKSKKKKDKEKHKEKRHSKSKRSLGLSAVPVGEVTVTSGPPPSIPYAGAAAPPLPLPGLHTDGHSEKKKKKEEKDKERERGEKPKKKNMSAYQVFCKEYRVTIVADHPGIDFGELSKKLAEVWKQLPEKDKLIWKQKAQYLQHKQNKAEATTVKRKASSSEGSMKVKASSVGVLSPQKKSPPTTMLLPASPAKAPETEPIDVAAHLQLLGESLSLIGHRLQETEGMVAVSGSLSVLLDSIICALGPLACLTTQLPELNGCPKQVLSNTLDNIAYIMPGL
UniProt Q9Y224: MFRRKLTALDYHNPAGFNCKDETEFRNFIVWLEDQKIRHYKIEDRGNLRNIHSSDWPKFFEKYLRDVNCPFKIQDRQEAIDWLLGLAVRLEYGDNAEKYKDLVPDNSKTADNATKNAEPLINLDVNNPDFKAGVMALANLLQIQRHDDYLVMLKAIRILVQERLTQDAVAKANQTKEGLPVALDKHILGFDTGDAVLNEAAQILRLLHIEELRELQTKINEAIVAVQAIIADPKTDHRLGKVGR
UniProt Q9ULV4, whole entry: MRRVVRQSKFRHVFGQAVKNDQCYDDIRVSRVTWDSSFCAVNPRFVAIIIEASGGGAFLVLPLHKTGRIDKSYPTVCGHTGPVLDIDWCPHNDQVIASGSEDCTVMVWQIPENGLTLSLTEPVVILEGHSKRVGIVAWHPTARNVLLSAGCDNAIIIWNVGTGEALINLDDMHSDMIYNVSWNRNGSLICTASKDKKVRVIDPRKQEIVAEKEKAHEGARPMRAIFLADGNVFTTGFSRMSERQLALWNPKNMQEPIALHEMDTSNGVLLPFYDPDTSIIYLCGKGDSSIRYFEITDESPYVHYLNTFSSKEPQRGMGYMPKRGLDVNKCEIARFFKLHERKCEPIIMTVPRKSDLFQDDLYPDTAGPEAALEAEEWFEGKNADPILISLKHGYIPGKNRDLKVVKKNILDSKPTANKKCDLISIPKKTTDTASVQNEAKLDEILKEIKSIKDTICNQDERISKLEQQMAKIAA

Compound: Nc1ncnc2c1ncn2[C@@H]1O[C@H](COP(=O)(O)OP(=O)(O)OP(=O)(O)O)[C@@H](O)[C@H]1O [adenosine triphosphate]
Assay: NP40-soluble protein abundance relative to vehicle (solubility fold change) (ratio); higher = more soluble protein in presence of ATP
Outline: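 Eight concentrations, 0.1 to 10 mM, were tested on Jurkat crude lysate for 10 min at room temperature and then 3 min at 37 °C, in three independent experiments. The lysate was solubilised with 0.8% NP40 and benzonase, ultracentrifuged, and the supernatant TMT-labelled for LC-MS/MS. Each value is the fold change against the detergent-processed vehicle in its own replicate, from vsn-normalised intensities.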

UVRAG (UniProt Q9P2Y5)
NP40-soluble protein abundance (concentration: 0.1mM): 1.04 ± 0.026 | NP40-soluble protein abundance (concentration: 0.5mM): 1.08 ± 0.071

UniProt Q9UBS0
NP40-soluble protein abundance (concentration: 0.1mM): 1.09 ± 0.034 | NP40-soluble protein abundance (concentration: 0.5mM): 1.18 ± 0.047 | NP40-soluble protein abundance (concentration: 1mM): 1.1 ± 0.063 | NP40-soluble protein abundance (concentration: 2mM): 1.11 ± 0.082 | NP40-soluble protein abundance (concentration: 4mM): 1.12 ± 0.088 | NP40-soluble protein abundance (concentration: 6mM): 1.05 ± 0.053 | NP40-soluble protein abundance (concentration: 8mM): 1.15 ± 0.14 | NP40-soluble protein abundance (concentration: 10mM): 1.09 ± 0.11

UniProt Q9UP95 and related entries
NP40-soluble protein abundance (concentration: 0.1mM): 1.04 ± 0.11 | NP40-soluble protein abundance (concentration: 0.5mM): 0.956 ± 0.068 | NP40-soluble protein abundance (concentration: 1mM): 0.956 ± 0.1 | NP40-soluble protein abundance (concentration: 2mM): 0.979 ± 0.12 | NP40-soluble protein abundance (concentration: 4mM): 0.964 ± 0.11 | NP40-soluble protein abundance (concentration: 6mM): 1.03 ± 0.058 | NP40-soluble protein abundance (concentration: 8mM): 0.909 ± 0.099 | NP40-soluble protein abundance (concentration: 10mM): 0.989 ± 0.035

GRHPR (UniProt Q9UBQ7)
NP40-soluble protein abundance (concentration: 0.1mM): 1.03 ± 0.069 | NP40-soluble protein abundance (concentration: 0.5mM): 1.05 ± 0.055

NOB1 (UniProt Q9ULX3)
NP40-soluble protein abundance (concentration: 0.1mM): 0.999 ± 0.028 | NP40-soluble protein abundance (concentration: 0.5mM): 1.05 ± 0.026 | NP40-soluble protein abundance (concentration: 1mM): 1.07 ± 0.023 | NP40-soluble protein abundance (concentration: 2mM): 1.06 ± 0.086 | NP40-soluble protein abundance (concentration: 4mM): 1.03 ± 0.077 | NP40-soluble protein abundance (concentration: 6mM): 1.07 ± 0.13 | NP40-soluble protein abundance (concentration: 8mM): 1.08 ± 0.054 | NP40-soluble protein abundance (concentration: 10mM): 1.05 ± 0.065

UniProt Q9UPN7
NP40-soluble protein abundance (concentration: 0.1mM): 0.972 ± 0.03 | NP40-soluble protein abundance (concentration: 0.5mM): 0.959 ± 0.037 | NP40-soluble protein abundance (concentration: 1mM): 0.945 ± 0.014 | NP40-soluble protein abundance (concentration: 2mM): 0.941 ± 0.046 | NP40-soluble protein abundance (concentration: 4mM): 0.941 ± 0.029 | NP40-soluble protein abundance (concentration: 6mM): 0.917 ± 0.041 | NP40-soluble protein abundance (concentration: 8mM): 0.924 ± 0.018 | NP40-soluble protein abundance (concentration: 10mM): 0.93 ± 0.037

UniProt Q9UBK8 and related entries
NP40-soluble protein abundance (concentration: 0.1mM): 1.01 ± 0.064 | NP40-soluble protein abundance (concentration: 0.5mM): 0.994 ± 0.072 | NP40-soluble protein abundance (concentration: 1mM): 0.946 ± 0.042 | NP40-soluble protein abundance (concentration: 2mM): 1.01 ± 0.066 | NP40-soluble protein abundance (concentration: 4mM): 0.941 ± 0.058 | NP40-soluble protein abundance (concentration: 6mM): 0.97 ± 0.068 | NP40-soluble protein abundance (concentration: 8mM): 0.973 ± 0.028 | NP40-soluble protein abundance (concentration: 10mM): 0.978 ± 0.08

SPG7 (UniProt Q9UQ90)
NP40-soluble protein abundance (concentration: 0.1mM): 1.05 ± 0.021 | NP40-soluble protein abundance (concentration: 0.5mM): 1.11 ± 0.052

DBR1 (UniProt Q9UK59)
NP40-soluble protein abundance (concentration: 0.1mM): 1.04 ± 0.071 | NP40-soluble protein abundance (concentration: 0.5mM): 1.06 ± 0.053 | NP40-soluble protein abundance (concentration: 1mM): 1.04 ± 0.066 | NP40-soluble protein abundance (concentration: 2mM): 1.03 ± 0.066 | NP40-soluble protein abundance (concentration: 4mM): 1.02 ± 0.051 | NP40-soluble protein abundance (concentration: 6mM): 0.973 ± 0.11 | NP40-soluble protein abundance (concentration: 8mM): 1.03 ± 0.056 | NP40-soluble protein abundance (concentration: 10mM): 1.03 ± 0.044

UniProt Q9UNF0 and related entries
NP40-soluble protein abundance (concentration: 0.1mM): 1 ± 0.017 | NP40-soluble protein abundance (concentration: 0.5mM): 0.992 ± 0.054 | NP40-soluble protein abundance (concentration: 1mM): 0.963 ± 0.04 | NP40-soluble protein abundance (concentration: 2mM): 0.952 ± 0.024 | NP40-soluble protein abundance (concentration: 4mM): 0.927 ± 0.011 | NP40-soluble protein abundance (concentration: 6mM): 0.954 ± 0.023 | NP40-soluble protein abundance (concentration: 8mM): 0.895 ± 0.019 | NP40-soluble protein abundance (concentration: 10mM): 0.9 ± 0.049

HMGXB4 (UniProt Q9UGU5)
NP40-soluble protein abundance (concentration: 0.1mM): 0.954 ± 0.054 | NP40-soluble protein abundance (concentration: 0.5mM): 1.03 ± 0.028

UniProt Q9Y224
NP40-soluble protein abundance (concentration: 0.1mM): 0.911 ± 0.076 | NP40-soluble protein abundance (concentration: 0.5mM): 0.842 ± 0.19 | NP40-soluble protein abundance (concentration: 1mM): 0.958 ± 0.053 | NP40-soluble protein abundance (concentration: 2mM): 0.872 ± 0.031 | NP40-soluble protein abundance (concentration: 4mM): 0.903 ± 0.092 | NP40-soluble protein abundance (concentration: 6mM): 0.918 ± 0.12 | NP40-soluble protein abundance (concentration: 8mM): 0.995 ± 0.011 | NP40-soluble protein abundance (concentration: 10mM): 0.782 ± 0.18

WDR3 (UniProt Q9UNX4)
NP40-soluble protein abundance (concentration: 0.1mM): 1.11 ± 0.09 | NP40-soluble protein abundance (concentration: 0.5mM): 1.15 ± 0.067 | NP40-soluble protein abundance (concentration: 1mM): 1.28 ± 0.11 | NP40-soluble protein abundance (concentration: 2mM): 1.46 ± 0.1 | NP40-soluble protein abundance (concentration: 4mM): 1.82 ± 0.17 | NP40-soluble protein abundance (concentration: 6mM): 1.97 ± 0.2 | NP40-soluble protein abundance (concentration: 8mM): 2.23 ± 0.2 | NP40-soluble protein abundance (concentration: 10mM): 2.34 ± 0.13

UniProt Q9ULV4 and related entries
NP40-soluble protein abundance (concentration: 0.1mM): 0.922 ± 0.05 | NP40-soluble protein abundance (concentration: 0.5mM): 1 ± 0.097 | NP40-soluble protein abundance (concentration: 1mM): 1.08 ± 0.086 | NP40-soluble protein abundance (concentration: 2mM): 1.16 ± 0.1 | NP40-soluble protein abundance (concentration: 4mM): 1.24 ± 0.11 | NP40-soluble protein abundance (concentration: 6mM): 1.4 ± 0.12 | NP40-soluble protein abundance (concentration: 8mM): 1.43 ± 0.13 | NP40-soluble protein abundance (concentration: 10mM): 1.52 ± 0.16
